Reference: PMC3390794
These are yes or no findings as the source states them, for the method shown. In cells and extracts the contact can be indirect. These calls come from enrichment with a bait or labelling near it, and not all partners need be listed. No binding means not detected with the bait.

Protein sequences, listed by entry. Tags and fused reporters are not part of them.
UniProt O15105: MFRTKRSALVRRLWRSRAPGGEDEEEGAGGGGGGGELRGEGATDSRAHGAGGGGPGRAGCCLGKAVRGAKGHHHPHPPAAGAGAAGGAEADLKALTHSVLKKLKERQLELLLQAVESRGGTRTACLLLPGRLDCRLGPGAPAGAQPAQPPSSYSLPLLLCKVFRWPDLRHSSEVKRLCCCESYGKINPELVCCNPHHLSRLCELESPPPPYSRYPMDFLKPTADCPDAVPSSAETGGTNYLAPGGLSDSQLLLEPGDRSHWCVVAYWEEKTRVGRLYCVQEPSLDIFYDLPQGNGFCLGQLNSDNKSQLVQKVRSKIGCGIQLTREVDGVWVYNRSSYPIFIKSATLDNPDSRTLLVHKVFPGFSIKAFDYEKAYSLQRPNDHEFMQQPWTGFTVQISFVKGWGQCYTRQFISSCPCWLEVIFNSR
UniProt Q15796: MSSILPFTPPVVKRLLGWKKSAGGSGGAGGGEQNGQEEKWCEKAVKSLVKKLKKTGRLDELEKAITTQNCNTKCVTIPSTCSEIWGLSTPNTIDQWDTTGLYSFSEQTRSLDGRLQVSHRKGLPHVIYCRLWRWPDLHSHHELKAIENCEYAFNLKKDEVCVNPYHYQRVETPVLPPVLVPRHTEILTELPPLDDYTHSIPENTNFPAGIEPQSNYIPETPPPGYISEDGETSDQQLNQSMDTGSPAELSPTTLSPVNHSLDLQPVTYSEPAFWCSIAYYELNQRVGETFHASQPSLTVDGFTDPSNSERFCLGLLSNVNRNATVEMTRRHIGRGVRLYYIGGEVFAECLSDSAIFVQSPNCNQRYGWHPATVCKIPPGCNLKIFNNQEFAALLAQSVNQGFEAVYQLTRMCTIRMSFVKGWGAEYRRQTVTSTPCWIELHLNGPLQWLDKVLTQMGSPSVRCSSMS
UniProt Q13485: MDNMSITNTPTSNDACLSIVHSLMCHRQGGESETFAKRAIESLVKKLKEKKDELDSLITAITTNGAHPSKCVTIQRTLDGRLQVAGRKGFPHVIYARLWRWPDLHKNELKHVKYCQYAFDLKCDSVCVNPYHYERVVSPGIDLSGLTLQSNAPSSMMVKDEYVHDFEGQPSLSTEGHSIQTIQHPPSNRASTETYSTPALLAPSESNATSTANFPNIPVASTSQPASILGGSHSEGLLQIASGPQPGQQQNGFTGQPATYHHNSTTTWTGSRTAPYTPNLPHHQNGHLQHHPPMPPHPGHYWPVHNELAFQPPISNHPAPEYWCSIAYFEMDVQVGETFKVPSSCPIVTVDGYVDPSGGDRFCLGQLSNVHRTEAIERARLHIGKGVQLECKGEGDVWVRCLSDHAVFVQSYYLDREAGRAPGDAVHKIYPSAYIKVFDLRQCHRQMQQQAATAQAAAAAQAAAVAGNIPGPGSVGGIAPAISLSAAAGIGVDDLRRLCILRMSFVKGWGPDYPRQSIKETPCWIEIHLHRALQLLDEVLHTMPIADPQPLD
UniProt Q99717: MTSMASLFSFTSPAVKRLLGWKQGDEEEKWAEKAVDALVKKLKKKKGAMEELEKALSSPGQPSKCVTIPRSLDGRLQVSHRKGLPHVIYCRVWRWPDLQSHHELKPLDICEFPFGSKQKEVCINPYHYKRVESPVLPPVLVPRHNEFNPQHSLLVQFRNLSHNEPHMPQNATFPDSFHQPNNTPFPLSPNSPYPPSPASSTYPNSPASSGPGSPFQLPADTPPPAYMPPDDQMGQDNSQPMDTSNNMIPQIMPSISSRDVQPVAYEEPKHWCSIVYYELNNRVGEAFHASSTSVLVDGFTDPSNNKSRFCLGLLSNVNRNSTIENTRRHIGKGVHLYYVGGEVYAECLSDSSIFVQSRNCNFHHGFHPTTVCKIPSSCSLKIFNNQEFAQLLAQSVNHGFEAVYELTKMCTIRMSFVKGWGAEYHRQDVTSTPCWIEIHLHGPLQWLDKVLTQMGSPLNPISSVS
UniProt Q93009: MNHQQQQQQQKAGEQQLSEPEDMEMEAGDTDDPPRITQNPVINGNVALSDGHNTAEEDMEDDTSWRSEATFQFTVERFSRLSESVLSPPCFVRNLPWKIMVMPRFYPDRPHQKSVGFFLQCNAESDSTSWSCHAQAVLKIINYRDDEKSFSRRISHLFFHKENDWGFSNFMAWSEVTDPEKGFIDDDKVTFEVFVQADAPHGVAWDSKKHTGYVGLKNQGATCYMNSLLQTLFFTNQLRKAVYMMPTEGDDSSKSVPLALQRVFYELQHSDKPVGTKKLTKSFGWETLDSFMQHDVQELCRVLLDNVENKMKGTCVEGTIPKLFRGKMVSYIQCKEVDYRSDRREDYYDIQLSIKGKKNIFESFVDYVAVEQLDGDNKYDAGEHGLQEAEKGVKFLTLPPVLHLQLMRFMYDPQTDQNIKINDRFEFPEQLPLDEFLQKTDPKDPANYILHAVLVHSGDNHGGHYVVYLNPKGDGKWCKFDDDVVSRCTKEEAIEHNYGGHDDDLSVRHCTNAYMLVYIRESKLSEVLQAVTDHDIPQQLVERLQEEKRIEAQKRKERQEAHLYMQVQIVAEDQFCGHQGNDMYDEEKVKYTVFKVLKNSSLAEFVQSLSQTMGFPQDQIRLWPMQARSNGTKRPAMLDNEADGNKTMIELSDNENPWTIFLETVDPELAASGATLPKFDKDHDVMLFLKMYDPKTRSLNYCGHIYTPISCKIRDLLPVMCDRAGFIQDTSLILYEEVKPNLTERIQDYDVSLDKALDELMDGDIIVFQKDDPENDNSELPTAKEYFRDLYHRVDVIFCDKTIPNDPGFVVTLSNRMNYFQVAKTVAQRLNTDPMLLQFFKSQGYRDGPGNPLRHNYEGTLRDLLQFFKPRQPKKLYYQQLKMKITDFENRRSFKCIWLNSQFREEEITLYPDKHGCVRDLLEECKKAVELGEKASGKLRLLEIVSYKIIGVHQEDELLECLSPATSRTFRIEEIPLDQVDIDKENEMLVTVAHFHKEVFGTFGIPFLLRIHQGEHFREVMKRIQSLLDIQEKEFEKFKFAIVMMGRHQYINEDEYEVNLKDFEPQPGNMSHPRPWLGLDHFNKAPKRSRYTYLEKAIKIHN
UniProt Q93008: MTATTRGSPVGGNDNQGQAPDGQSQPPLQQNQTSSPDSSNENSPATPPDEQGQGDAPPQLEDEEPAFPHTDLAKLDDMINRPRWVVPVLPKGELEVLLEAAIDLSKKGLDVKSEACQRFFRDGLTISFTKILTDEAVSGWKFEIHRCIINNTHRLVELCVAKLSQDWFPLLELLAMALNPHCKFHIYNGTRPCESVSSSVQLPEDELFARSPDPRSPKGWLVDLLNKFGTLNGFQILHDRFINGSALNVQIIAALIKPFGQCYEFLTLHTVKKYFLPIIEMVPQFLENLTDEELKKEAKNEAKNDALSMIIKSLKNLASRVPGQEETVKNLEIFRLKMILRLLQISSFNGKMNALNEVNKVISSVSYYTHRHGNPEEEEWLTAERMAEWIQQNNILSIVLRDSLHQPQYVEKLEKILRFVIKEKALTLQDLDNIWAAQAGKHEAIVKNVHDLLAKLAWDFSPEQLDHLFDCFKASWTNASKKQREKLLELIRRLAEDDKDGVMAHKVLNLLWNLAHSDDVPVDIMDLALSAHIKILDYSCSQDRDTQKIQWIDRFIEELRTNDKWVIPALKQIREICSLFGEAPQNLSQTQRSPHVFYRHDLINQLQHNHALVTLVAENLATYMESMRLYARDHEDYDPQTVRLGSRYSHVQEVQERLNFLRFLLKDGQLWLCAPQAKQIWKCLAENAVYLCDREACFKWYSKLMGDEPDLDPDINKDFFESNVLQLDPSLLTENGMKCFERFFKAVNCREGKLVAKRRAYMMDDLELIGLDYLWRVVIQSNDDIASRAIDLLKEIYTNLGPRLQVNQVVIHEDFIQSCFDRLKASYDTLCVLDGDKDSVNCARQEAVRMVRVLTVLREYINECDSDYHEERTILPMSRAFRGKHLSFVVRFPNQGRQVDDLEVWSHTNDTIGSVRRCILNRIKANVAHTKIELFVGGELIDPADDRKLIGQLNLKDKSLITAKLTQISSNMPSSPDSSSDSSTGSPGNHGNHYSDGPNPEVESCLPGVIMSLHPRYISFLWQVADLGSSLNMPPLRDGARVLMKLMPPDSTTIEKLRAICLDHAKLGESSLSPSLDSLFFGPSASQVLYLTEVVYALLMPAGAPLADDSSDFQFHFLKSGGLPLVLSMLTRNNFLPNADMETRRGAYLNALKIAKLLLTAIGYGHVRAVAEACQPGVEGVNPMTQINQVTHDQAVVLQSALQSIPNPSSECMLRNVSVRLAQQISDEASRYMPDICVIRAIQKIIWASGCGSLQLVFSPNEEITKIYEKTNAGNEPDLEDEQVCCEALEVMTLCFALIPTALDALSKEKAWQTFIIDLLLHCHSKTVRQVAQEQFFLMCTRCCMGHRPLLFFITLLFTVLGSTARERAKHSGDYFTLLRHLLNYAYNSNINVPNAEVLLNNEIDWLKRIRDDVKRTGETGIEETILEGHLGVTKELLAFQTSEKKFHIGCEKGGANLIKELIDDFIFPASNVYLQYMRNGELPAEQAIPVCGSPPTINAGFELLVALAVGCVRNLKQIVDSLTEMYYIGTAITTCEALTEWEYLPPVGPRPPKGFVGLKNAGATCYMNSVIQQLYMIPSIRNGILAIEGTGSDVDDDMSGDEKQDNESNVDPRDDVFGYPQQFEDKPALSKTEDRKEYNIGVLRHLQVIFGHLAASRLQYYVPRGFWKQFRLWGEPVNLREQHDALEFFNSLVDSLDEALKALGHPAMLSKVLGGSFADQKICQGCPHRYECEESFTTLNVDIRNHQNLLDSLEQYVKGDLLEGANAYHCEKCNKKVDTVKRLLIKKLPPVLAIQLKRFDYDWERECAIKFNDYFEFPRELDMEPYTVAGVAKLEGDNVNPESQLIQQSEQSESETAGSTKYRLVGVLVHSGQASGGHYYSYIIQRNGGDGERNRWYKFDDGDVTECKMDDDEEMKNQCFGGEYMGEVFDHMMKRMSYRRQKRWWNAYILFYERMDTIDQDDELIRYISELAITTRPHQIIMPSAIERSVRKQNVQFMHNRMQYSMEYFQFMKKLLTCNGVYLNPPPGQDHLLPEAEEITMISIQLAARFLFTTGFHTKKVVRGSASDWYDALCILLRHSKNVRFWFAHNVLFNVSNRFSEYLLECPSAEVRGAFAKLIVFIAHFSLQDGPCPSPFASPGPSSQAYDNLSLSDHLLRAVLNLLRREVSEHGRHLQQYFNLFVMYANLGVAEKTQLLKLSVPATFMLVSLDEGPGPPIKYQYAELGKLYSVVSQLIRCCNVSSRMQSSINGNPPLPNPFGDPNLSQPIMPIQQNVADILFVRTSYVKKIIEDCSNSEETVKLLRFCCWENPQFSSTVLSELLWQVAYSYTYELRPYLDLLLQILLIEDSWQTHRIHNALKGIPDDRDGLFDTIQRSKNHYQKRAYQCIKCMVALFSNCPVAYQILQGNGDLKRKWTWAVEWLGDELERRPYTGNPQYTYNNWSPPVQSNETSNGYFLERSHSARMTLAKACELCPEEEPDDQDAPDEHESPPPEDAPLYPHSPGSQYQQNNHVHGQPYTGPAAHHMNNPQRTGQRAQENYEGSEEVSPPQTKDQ
UniProt P51784: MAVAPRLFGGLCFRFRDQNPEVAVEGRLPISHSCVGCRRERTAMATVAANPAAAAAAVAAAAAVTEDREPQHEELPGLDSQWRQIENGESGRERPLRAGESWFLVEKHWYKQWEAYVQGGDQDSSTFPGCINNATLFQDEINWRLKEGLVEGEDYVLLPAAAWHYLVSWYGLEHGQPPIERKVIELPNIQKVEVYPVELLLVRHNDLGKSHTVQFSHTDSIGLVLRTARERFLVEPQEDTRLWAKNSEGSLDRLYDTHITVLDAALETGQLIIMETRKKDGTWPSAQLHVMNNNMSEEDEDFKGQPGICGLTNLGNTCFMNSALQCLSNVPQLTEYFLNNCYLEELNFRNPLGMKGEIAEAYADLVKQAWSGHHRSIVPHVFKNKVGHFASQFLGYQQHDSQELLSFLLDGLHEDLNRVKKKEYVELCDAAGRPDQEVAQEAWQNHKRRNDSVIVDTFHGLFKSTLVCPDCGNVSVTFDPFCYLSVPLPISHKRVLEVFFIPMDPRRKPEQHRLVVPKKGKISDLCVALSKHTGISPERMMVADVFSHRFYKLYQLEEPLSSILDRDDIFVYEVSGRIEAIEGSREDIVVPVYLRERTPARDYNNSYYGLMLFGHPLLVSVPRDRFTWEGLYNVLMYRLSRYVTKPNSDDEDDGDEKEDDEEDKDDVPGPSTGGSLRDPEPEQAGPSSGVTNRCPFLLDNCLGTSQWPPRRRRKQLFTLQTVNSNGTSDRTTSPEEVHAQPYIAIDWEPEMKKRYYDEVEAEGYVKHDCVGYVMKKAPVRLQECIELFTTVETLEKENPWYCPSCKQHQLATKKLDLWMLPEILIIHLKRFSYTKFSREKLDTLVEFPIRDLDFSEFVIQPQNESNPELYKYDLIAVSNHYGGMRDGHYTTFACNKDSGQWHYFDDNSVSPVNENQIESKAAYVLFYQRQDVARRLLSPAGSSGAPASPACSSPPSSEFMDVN

Columns and labels:
Assay in all cases: affinity purification with mass spectrometry; anti-GFP IPs from extracts of HEK293 cells expressing GFP-SMAD7 (GFP alone as control; similar assays with GFP-tagged SMADs1–5); SDS–PAGE, gel pieces digested with trypsin, LC–MS–MS
[1] = molecular target: GFP-SMAD7 (human) (UniProt O15105)
[2] = molecular target: GFP-tagged SMAD1 (human) (UniProt Q15797)
[3] = molecular target: GFP-tagged SMAD2 (human) (UniProt Q15796)
[4] = molecular target: GFP-tagged SMAD3 (human) (UniProt P84022)
[5] = molecular target: GFP-tagged SMAD4 (human) (UniProt Q13485)
[6] = molecular target: GFP-tagged SMAD5 (UniProt Q99717)

Row | Molecule | binding [1] | binding [2] | binding [3] | binding [4] | binding [5] | binding [6]
1 | NEDD4 (from UniProt P46934 1-1319) (enzyme) | binds |  |  |  |  | 
2 | SMURF1 (from UniProt Q9HCE7 1-757) (enzyme) | binds |  |  |  |  | 
3 | SMURF2 (from UniProt Q9HAU4 1-748) (enzyme) | binds |  |  |  |  | 
4 | USP5 (from UniProt P45974 1-858) (enzyme) | no binding |  |  |  |  | 
5 | USP7 (from UniProt Q93009 1-1102) (enzyme) | no binding |  |  |  |  | 
6 | USP9X (from UniProt Q93008 1-2554) (enzyme) | no binding |  |  |  |  | 
7 | endogenous USP11 (from UniProt P51784 1-963) (enzyme) | binds | no binding | no binding | no binding | no binding | no binding
8 | USP15 (enzyme, UniProt Q9Y4E8 1-981) MAEGGAADLDTQRSDIATLLKTSLRKGDTWYLVDSRWFKQWKKYVGFDSWDKYQMGDQNVYPGPIDNSGLLKDGDAQSLKEHLIDELDYILLPTEGWNKLVSWYTLMEGQEPIARKVVEQGMFVKHCKVEVYLTELKLCENGNMNNVVTRRFSKADTIDTIEKEIRKIFSIPDEKETRLWNKYMSNTFEPLNKPDSTIQDAGLYQGQVLVIEQKNEDGTWPRGPSTPKSPGASNFSTLPKISPSSLSNNYNNMNNRNVKNSNYCLPSYTAYKNYDYSEPGRNNEQPGLCGLSNLGNTCFMNSAIQCLSNTPPLTEYFLNDKYQEELNFDNPLGMRGEIAKSYAELIKQMWSGKFSYVTPRAFKTQVGRFAPQFSGYQQQDCQELLAFLLDGLHEDLNRIRKKPYIQLKDADGRPDKVVAEEAWENHLKRNDSIIVDIFHGLFKSTLVCPECAKISVTFDPFCYLTLPLPMKKERTLEVYLVRMDPLTKPMQYKVVVPKIGNILDLCTALSALSGIPADKMIVTDIYNHRFHRIFAMDENLSSIMERDDIYVFEININRTEDTEHVIIPVCLREKFRHSSYTHHTGSSLFGQPFLMAVPRNNTEDKLYNLLLLRMCRYVKISTETEETEGSLHCCKDQNINGNGPNGIHEEGSPSEMETDEPDDESSQDQELPSENENSQSEDSVGGDNDSENGLCTEDTCKGQLTGHKKRLFTFQFNNLGNTDINYIKDDTRHIRFDDRQLRLDERSFLALDWDPDLKKRYFDENAAEDFEKHESVEYKPPKKPFVKLKDCIELFTTKEKLGAEDPWYCPNCKEHQQATKKLDLWSLPPVLVVHLKRFSYSRYMRDKLDTLVDFPINDLDMSEFLINPNAGPCRYNLIAVSNHYGGMGGGHYTAFAKNKDDGKWYYFDDSSVSTASEDQIVSKAAYVLFYQRQDTFSGTGFFPLDRETKGASAATGIPLESDEDSNDNDNDIENENCMHTN | binds | no binding | no binding | no binding | no binding | no binding
